Reference: US7354701B2, “Photographic element with speed-enhancing compound” (Eastman Kodak Company, priority 2003, dated 2008)

What was measured:
[1] = Granularity of the green layer in a neutral exposure, RMS method; conditions: TABLE 2, 48 micrometer aperture, density 1.2 log exposure units from the speed point, compound at 0.0806 mmol/m^2 in Layer 9
Protocol: Surfactants, coating aids, emulsion addenda (including 4-hydroxy-6-methyl-1,3,3a,7-tetra-azaindene), sequestrants, thickeners, lubricants, matte and tinting dyes were added to the appropriate layers as is common in the art. Formulae for the identified compounds are provided at the end of these examples. • Layer 1 (Antihalation layer): gelatin at 1.08, colloidal gray silver at 0.150; ILS-1 at 0.097; DYE-1 at 0.029; DYE-2 at 0.065; DYE-3 at 0.021; CH-1 at 0.025 and UV-1 at 0.075. • Layer 2 (Slow cyan layer): a blend of two red-sensitized (all with a mixture of RSD-1 and RSD-2) tabular silver iodobromide emulsions: (i) 0.81×0.11 μm, 4.5 mol % I at 0.400, (ii) 0.62×0.111 μm, 4.1 mol % iodide at 0.175; cyan dye-forming couplers C-1 at 0.248 and C-2 at 0.236; bleach accelerator-releasing coupler B-1 at 0.086; image-modifier DIR-1 at 0.032; OxDS-1 at 0.010 and gelatin at 1.08. • Layer 3 (Mid cyan layer): a red-sensitized (with a mixture of RSD-1 and RSD-2) iodobromide tabular emulsion (1.44×0.13 μm, 3.7 mol % I) at 0.572; C-1 at 0.265; C-2 at 0.103; B-1 at 0.011; DIR-2 at 0.043; masking coupler MC-1 at 0.022 and gelatin at 1.08. • Layer 4 (Fast cyan layer): a red-sensitized (with a mixture of RSD-1, RSD-2 and RSD-3) iodobromide tabular emulsion (2.41×0.13 μm, 3.7 mol % I) at 1.286; C-1 at 0.163; DIR-2 at 0.0.054; B-1 at 0.008 and gelatin at 1.08.
Layer 5 (Ultra-fast cyan layer): a red-sensitized (with a mixture of RSD-1, RSD-2 and RSD-3) iodobromide tabular emulsion (3.87×0.13 μm, 3.7 mol % I) at 1.180; C-2 at 0.175; DIR-3 at 0.060; DIR-4 at 0.001 and gelatin at 1.08. • Layer 6 (Interlayer): ILS-1 at 0.075 and gelatin at 1.08. • Layer 7 (Slow magenta layer): a blend of two green-sensitized (both with a mixture of GSD-1 and GSD-2) silver iodobromide tabular emulsions: (i) 1.17×0.12 μm, 4.5 mol % iodide at 0.156 and (ii) 0.62×0.111 μm, 2.6 mol % iodide at 0.573; magenta dye-forming coupler M-1 at 0.300; MC-2 at 0.090, DIR-5 at 0.032, ILS-1 at 0.011 and gelatin at 1.400. • Layer 8 (Mid magenta layer): a blend of two green-sensitized (both with a mixture of GSD-1 and GSD-2) silver iodobromide tabular emulsions: (i) 2.46×0.13 μm, 3.7 mol % iodide at 0.534 and (ii) 1.45×0.13 μm, 3.7 mol % iodide at 0.370; M-1 at 0.089; MC-2 at 0.086; DIR-5 at 0.025, ILS-1 at 0.012 and gelatin at 1.438. • Layer 9 (Fast magenta layer): two parts mixed together at a 1:1 ratio just prior to coating; Part A (dispersion melt): M-1 at 0.104; DIR-5 at 0.011; ILS-1 at 0.014 and gelatin at 0.420 and Part B (emulsion melt): a green-sensitized (with a mixture of GSD-1 and GSD-2) silver iodobromide tabular emulsion (2.90×0.13 μm, 3.7 mol % iodide) at 1.240; MC-2 at 0.021; DIR-6 at 0.003 and gelatin at 1.076. • Layer 10 (Interlayer): ILS-1 at 0.182 and gelatin at 0.700. • Layer 11 (Slow yellow layer): a blend of three blue-sensitized (all with BSD-1 and BSD-2) tabular silver iodobromide emulsions (i) 2.41×0.1 μm, 2.0 mol % I at 0.402, (ii) 1.02×0.137 μm, 2.0 mol % I at 0.136, (iii) 0.62×0.111 μm, 2.6 mol % I at 0.505; yellow dye-forming coupler Y-1 at 0.850; DIR-1 at 0.022; DIR-7 at 0.038; B-1 at 0.009 and gelatin at 1.90. • Layer 12 (Fast yellow layer): a blue-sensitized (with BSD-1 and BSD-2) tabular silver iodobromide emulsion, 3.72×0.131 μm, 3.7 mol % I at 0.070 and a blue-sensitized (with BSD-1) 3-D silver iodobromide emulsion, 1.21 μM diameter), 9.7 mol % I at 1.055; Y-1 at 0.312; DIR-7 at 0.065; B-1 at 0.011, stabiliser S-1 at 0.008 and gelatin at 1.280. • Layer 13 (WV Filter Layer): silver bromide Lippman emulsion at 0.215; UV-1 and UV-2 both at 0.108 and gelatin at 0.700. • Layer 14 (Protective overcoat): gelatin at 0.888 and bis(vinylsulfonyl)methane hardener at 1.75% of total gelatin weight.
All comparative and heterocyclic compounds for use in the invention were dispersed in twice their own weight in N,N-dibutyllauramide, unless otherwise noted. The resulting dispersions were stirred at 40 C for at least 1 h before coating. […]

[2] = Photographic speed of multilayer films, stepped neutral exposure, C-41 process; conditions: TABLE 2, compound at 0.0806 mmol/m^2 in Part A of Layer 9, difference in speed versus check
Protocol: Surfactants, coating aids, emulsion addenda (including 4-hydroxy-6-methyl-1,3,3a,7-tetra-azaindene), sequestrants, thickeners, lubricants, matte and tinting dyes were added to the appropriate layers as is common in the art. Formulae for the identified compounds are provided at the end of these examples. • Layer 1 (Antihalation layer): gelatin at 1.08, colloidal gray silver at 0.150; ILS-1 at 0.097; DYE-1 at 0.029; DYE-2 at 0.065; DYE-3 at 0.021; CH-1 at 0.025 and UV-1 at 0.075. • Layer 2 (Slow cyan layer): a blend of two red-sensitized (all with a mixture of RSD-1 and RSD-2) tabular silver iodobromide emulsions: (i) 0.81×0.11 μm, 4.5 mol % I at 0.400, (ii) 0.62×0.111 μm, 4.1 mol % iodide at 0.175; cyan dye-forming couplers C-1 at 0.248 and C-2 at 0.236; bleach accelerator-releasing coupler B-1 at 0.086; image-modifier DIR-1 at 0.032; OxDS-1 at 0.010 and gelatin at 1.08. • Layer 3 (Mid cyan layer): a red-sensitized (with a mixture of RSD-1 and RSD-2) iodobromide tabular emulsion (1.44×0.13 μm, 3.7 mol % I) at 0.572; C-1 at 0.265; C-2 at 0.103; B-1 at 0.011; DIR-2 at 0.043; masking coupler MC-1 at 0.022 and gelatin at 1.08. • Layer 4 (Fast cyan layer): a red-sensitized (with a mixture of RSD-1, RSD-2 and RSD-3) iodobromide tabular emulsion (2.41×0.13 μm, 3.7 mol % I) at 1.286; C-1 at 0.163; DIR-2 at 0.0.054; B-1 at 0.008 and gelatin at 1.08. […]

Compound | Granularity (×10^3) [1] | Δ Speed (stops) [2]
CCC(C)(C)c1ccc(OCC(=O)Nc2ccc(S(=O)(=O)Nc3nccs3)cc2)c(C(C)(C)CC)c1 [CC3, reference compound] | 20 ×10^3 | 
CCCCCCCCCCCCCCCc1cccc(OC(CC)C(=O)Nc2ncc(C=O)s2)c1 (stereo not shown) [SGA6] | 20 ×10^3 | 0.23 stops
CCCCCCCCCCCCCCCc1cccc(OC(CC)C(=O)Nc2ncc(SCCCC)s2)c1 (stereo not shown) [SGA7] | 20 ×10^3 | 0.17 stops
CCCCCCCCCCCCCCCc1cccc(OC(CC)C(=O)Nc2ncc(S(=O)(=O)CCCC)s2)c1 (stereo not shown) [SGA8] | 20 ×10^3 | 
CCC(C)(C)c1ccc(OCC(=O)Nc2ccc(S(=O)(=O)Nc3nccc(C)n3)cc2)c(C(C)(C)CC)c1 [SGA32] | 21 ×10^3 | 0.20 stops
CCCCCCCCCCCCCCCc1cccc(OC(CC)C(=O)Nc2ccc(SCCCC)nn2)c1 (stereo not shown) [SGA42] | 20 ×10^3 | 0.20 stops
